{"source": "paper PMC13132431", "binders": {"B1": {"name": "NAC50, Q9SQX9 1-447 (protein)", "chain": "MGRESLAVVSSPPSATAPSTAVSATSLAPGFRFHPTDEELVSYYLKRKVLGKPVRFDAIGEVDIYKHEPWDLAVFSKLKTRDQEWYFFSALDKKYGNGARMNRATNKGYWKATGKDREIRRDIQLLGMKKTLVFHSGRAPDGLRTNWVMHEYRLVEYETETNGSLLQDAYVLCRVFHKNNIGPPSGNRYAPFMEEEWADGGGALIPGIDVRVRVEALPQANGNNQMDQEMHSASKDLININELPRDATPMDIEPNQQNHHESAFKPQESNNHSGYEEDEDTLKREHAEEDERPPSLCILNKEAPLPLLQYKRRRQNESNNNSSRNTQDHCSSTITTVDNTTTLISSSAAAATNTAISALLEFSLMGISDKKENQQKEETSPPSPIASPEEKVNDLQKEVHQMSVERETFKLEMMSAEAMISILQSRIDALRQENEELKKKNASGQAS"}, "B2": {"name": "JUMONJI 14 (JMJ14), H3K4me3 de-methylase, Q8GUI6 1-954 (protein)", "chain": "MDQLASLAESVAMEEDSEKQSIKGESSLEPDSTPSSPKITARWNPSEACRPLVDDAPIFYPTNEDFDDPLGYIEKLRSKAESYGICRIVPPVAWRPPCPLKEKKIWENSKFPTRIQFIDLLQNREPIKKSTKTKKRKRRRISKIGYTRRKRDSGCDTASSGSSDSEGKFGFQTGPDFTLEEFQKYDEYFKECYFQSEDHPGSKASENKKFKPKVKDLEGEYWRIVEQATDEVEVYYGADLETKKFGSGFPKYKPGYPISEADQYSQCGWNLNNLSRLPGSVLAFESCDISGVIVPWLYVGMCFSTFCWHVEDHHLYSMNYLHTGDPKVWYGIPGNHAESFENVMKKRLPDLFEEQPDLLHQLVTQLSPRILKEEGVPVYRAVQRSGEFILTFPKAYHSGFNCGFNCAEAVNVAPVDWLVHGQNAVEGYSKQRRKSSLSHDKLLLGAAMEATYCLWELSLSKKKTPVIARWKRVCSEDGLLTKAVKKRVQMEEERLNHLQDGFSLRKMEGDFDNKRERECFLCFYDLHMSASSCKCSPNRFACLIHAKDLCSCESKDRYILIRHTLDELWALVRALEGDLDAIDLWASKCRDQYPSQHPRAREYAYLKSAPCIKSRGSSKVQQREQNNLQLVSERLQSDLTSNKEVQLKQDGDSDVNRHGHESERNHVHGITDKSAVTDVKLGVGGKFDEKKISVESQNPHSVSDVGCSELAKKVDGCLGGKDQNAATNRLSLSVELLSSGSLVVKKLWCSKQAIYPKGFKSRVKFLSVLDPTNLTNYISEVLDAGLLGPLFRVSVEDYPTENFSNVSAEKCWQMVTQRLKLEIIKKCDQPVSSLTSLQPLESINGLEMFGFLSPHVIKVVEALDPKHQLEEYWNQKAVKLFGAEPIKEGEKDDTEKGGASDPSLDRDTRLLRGLLKKATPEELVMMHGLLCGETRNTELKEELSTLVDKMEISP"}, "B3": {"name": "VIVIPAROUS1/ABI3-LIKE1;VP1/ABI3-LIKE 1 (VAL1) (protein, UniProt Q8W4L5 1-790)", "chain": "MFEVKMGSKMCMNASCGTTSTVEWKKGWPLRSGLLADLCYRCGSAYESSLFCEQFHKDQSGWRECYLCSKRLHCGCIASKVTIELMDYGGVGCSTCACCHQLNLNTRGENPGVFSRLPMKTLADRQHVNGESGGRNEGDLFSQPLVMGGDKREEFMPHRGFGKLMSPESTTTGHRLDAAGEMHESSPLQPSLNMGLAVNPFSPSFATEAVEGMKHISPSQSNMVHCSASNILQKPSRPAISTPPVASKSAQARIGRPPVEGRGRGHLLPRYWPKYTDKEVQQISGNLNLNIVPLFEKTLSASDAGRIGRLVLPKACAEAYFPPISQSEGIPLKIQDVRGREWTFQFRYWPNNNSRMYVLEGVTPCIQSMMLQAGDTVTFSRVDPGGKLIMGSRKAANAGDMQGCGLTNGTSTEDTSSSGVTENPPSINGSSCISLIPKELNGMPENLNSETNGGRIGDDPTRVKEKKRTRTIGAKNKRLLLHSEESMELRLTWEEAQDLLRPSPSVKPTIVVIEEQEIEEYDEPPVFGKRTIVTTKPSGEQERWATCDDCSKWRRLPVDALLSFKWTCIDNVWDVSRCSCSAPEESLKELENVLKVGREHKKRRTGESQAAKSQQEPCGLDALASAAVLGDTIGEPEVATTTRHPRHRAGCSCIVCIQPPSGKGRHKPTCGCTVCSTVKRRFKTLMMRRKKKQLERDVTAAEDKKKKDMELAESDKSKEEKEVNTARIDLNSDPYNKEDVEAVAVEKEESRKRAIGQCSGVVAQDASDVLGVTELEGEGKNVREEPRVSS"}, "B4": {"name": "NAC50 (protein, UniProt Q9SQX9 1-447)", "chain": "B1 chain"}, "B5": {"name": "EMBRYONIC FLOWER 1 (EMF1) (protein, UniProt Q9LYD9 1-1096)", "chain": "MGSSIKINSISIDLAGAANEIDMVKCDHFSMRGFVAETRERDLRKCWPFSEESVSLVDQQSYTLPTLSVPKFRWWHCMSCIKDIDAHGPKDCGLHSNSKAIGNSSVIESKSKFNSLTIIDHEKEKKTDIADNAIEEKVGVNCENDDQTATTFLKKARGRPMGASNVRSKSRKLVSPEQVGNNRSKEKLNKPSMDISSWKEKQNVDQAVTTFGSSEIAGVVEDTPPKATKNHKGIRGLMECDNGSSESINLAMSGLQRRKSRKVRLLSELLGNTKTSGGSNIRKEESALKKESVRGRKRKLLPENNYVSRILSTMGATSENASKSCDSDQGNSESTDSGFDRTPFKGKQRNRRFQVVDEFVPSLPCETSQEGIKEHDADPSKRSTPAHSLFTGNDSVPCPPGTQRTERKLSLPKKKTKKPVIDNGKSTVISFSNGIDGSQVNSHTGPSMNTVSQTRDLLNGKRVGGLFDNRLASDGYFRKYLSQVNDKPITSLHLQDNDYVRSRDAEPNCLRDFSSSSKSSSGGWLRTGVDIVDFRNNNHNTNRSSFSNLKLRYPPSSTEVADLSRVLQKDASGADRKGKTVMVQEHHGAPRSQSHDRKETTTEEQNNDDIPMEIVELMAKNQYERCLPDKEEDVSNKQPSQETAHKSKNALLIDLNETYDNGISLEDNNTSRPPKPCSSNARREEHFPMGRQQNSHDFFPISQPYVPSPFGIFPPTQENRASSIRFSGHNCQWLGNLPTVGNQNPSPSSFRVLRACDTCQSVPNQYREASHPIWPSSMIPPQSQYKPVSLNINQSTNPGTLSQASNNENTWNLNFVAANGKQKCGPNPEFSFGCKHAAGVSSSSSRPIDNFSSESSIPALHLLSLLDPRLRSTTPADQHGNTKFTKRHFPPANQSKEFIELQTGDSSKSAYSTKQIPFDLYSKRFTQEPSRKSFPITPPIGTSSLSFQNASWSPHHQEKKTKRKDTFAPVYNTHEKPVFASSNDQAKFQLLGASNSMMLPLKFHMTDKEKKQKRKAESCNNNASAGPVKNSSGPIVCSVNRNPADFTIPEPGNVYMLTGEHLKVRKRTTFKKKPAVCKQDAMKQTKKPVCPPTQNA"}}, "assay_in_all_cases": "affinity purification with mass spectrometry; GFP-trap agarose beads on nuclear extracts of transgenic plants expressing 35Sp-TRB1 or 35Sp-TRB3 fused to YFP/GFP; 35Sp-EDS1 fusion as background control; extracts treated with DNase I and RNase A; 20 mM Tris-HCl pH 7.4, 150 mM NaCl, 0.1% Triton X-100, 2 mM EDTA, 4°C, 2.5 h; biological triplicates; label-free quantification, ANOVA with HSD, FDR < 0.05", "key": {"[1]": {"target": "T1, TELOMERE REPEAT BINDING FACTOR 3 (TRB3) fused to YFP, expressed under the Cauliflower Mosaic Virus 35S promoter (Arabidopsis thaliana), Q9M2X3", "T1 chain": "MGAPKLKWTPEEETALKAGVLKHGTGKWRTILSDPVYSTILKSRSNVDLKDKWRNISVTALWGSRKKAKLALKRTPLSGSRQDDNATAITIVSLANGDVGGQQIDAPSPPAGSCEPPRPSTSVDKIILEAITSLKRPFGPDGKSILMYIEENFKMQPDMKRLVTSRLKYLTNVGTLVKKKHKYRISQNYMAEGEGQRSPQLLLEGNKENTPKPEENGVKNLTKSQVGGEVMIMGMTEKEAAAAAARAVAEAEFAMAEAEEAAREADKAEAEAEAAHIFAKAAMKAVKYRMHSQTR", "conditions": "remark: other sources report otherwise"}, "[2]": {"target": "T2, TELOMERE REPEAT BINDING FACTOR 1 (TRB1) fused to YFP, expressed under the Cauliflower Mosaic Virus 35S promoter (Arabidopsis thaliana), Q8VWK4", "T2 chain": "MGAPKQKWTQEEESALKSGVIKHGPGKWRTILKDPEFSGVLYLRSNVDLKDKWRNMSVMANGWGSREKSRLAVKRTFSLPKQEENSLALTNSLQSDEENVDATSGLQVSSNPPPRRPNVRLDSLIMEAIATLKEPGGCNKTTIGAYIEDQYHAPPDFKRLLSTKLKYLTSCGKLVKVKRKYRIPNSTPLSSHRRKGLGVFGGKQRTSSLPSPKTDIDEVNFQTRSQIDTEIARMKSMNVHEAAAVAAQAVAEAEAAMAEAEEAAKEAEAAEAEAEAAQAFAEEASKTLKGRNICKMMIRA", "conditions": "remark: other sources report otherwise"}, "[3]": {"target": "T3, TELOMERE REPEAT BINDING FACTOR 1 (TRB1) fused to YFP, expressed under the Cauliflower Mosaic Virus 35S promoter (Arabidopsis thaliana) (UniProt Q8VWK4)", "T3 sequence": "T2 chain"}, "[4]": {"target": "T4, TELOMERE REPEAT BINDING FACTOR 3 (TRB3) fused to YFP, expressed under the Cauliflower Mosaic Virus 35S promoter (Arabidopsis thaliana) (UniProt Q9M2X3)", "T4 sequence": "T1 chain"}}, "note": "No constants are given. Whether binding was seen depends on the method and setting. Binding seen in cells or lysates may run through a third protein. A yes stands for co-enrichment or nearness to the bait. Other partners may have been found. For some of these results: A no says only that the protein was not detected with the bait. Tags and fused reporters may be left off the sequences shown.", "data": [{"binder": "B1", "values": [{"measurement": "binding", "setting": "[1]", "result": "binds"}]}, {"binder": "B2", "values": [{"measurement": "binding", "setting": "[2]", "result": "binds"}, {"measurement": "binding", "setting": "[1]", "result": "binds"}]}, {"binder": "B3", "values": [{"measurement": "binding", "setting": "[3]", "result": "binds"}, {"measurement": "binding", "setting": "[4]", "result": "binds"}]}, {"binder": "B4", "values": [{"measurement": "binding", "setting": "[3]", "result": "binds"}]}, {"binder": "B5", "values": [{"measurement": "binding", "setting": "[3]", "result": "no binding"}]}]}
